Results as given in article PMC7032568.
Results are given in words; binding and its absence hold for the method and conditions named. In cells and extracts the contact can be indirect. Here binding means that the protein was enriched with, or labelled near, the bait; the list need not be complete. Tags and fused reporters may be left off the sequences shown.

Biological target: T1, YFP-tagged DDX11 (human) (UniProt Q96FC9)
T1 sequence: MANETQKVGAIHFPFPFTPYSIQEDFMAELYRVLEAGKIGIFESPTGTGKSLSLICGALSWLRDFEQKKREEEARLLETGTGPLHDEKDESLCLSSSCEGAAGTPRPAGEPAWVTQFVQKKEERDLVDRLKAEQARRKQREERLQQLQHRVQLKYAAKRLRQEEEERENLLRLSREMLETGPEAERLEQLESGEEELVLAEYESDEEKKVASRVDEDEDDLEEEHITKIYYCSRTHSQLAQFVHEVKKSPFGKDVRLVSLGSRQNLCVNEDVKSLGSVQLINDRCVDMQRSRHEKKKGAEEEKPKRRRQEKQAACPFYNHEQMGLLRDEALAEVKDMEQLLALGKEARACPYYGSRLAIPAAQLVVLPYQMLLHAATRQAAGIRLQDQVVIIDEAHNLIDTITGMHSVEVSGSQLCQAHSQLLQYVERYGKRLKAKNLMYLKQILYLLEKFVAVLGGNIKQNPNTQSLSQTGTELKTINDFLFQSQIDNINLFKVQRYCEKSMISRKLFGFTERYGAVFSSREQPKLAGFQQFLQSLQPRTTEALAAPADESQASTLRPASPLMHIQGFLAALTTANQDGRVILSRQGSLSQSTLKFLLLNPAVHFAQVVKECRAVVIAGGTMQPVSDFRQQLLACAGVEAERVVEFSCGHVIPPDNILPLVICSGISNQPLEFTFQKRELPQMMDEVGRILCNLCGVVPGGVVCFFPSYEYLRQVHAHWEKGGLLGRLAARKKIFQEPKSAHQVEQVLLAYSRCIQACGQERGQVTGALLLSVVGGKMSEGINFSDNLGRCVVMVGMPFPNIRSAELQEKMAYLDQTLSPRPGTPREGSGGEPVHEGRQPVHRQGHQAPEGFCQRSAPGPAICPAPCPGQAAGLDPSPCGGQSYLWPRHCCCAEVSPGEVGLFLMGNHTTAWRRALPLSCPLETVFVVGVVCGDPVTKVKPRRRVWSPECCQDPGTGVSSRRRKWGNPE
Experiment: affinity purification with mass spectrometry; N-terminally YFP-tagged DDX11 captured on GFP-trap_A beads from HeLa Flp-In T-REx extracts, 2 h at 4°C; parental cells as control; eluted with 0.2 M glycine pH 2.5; LC-MS/MS

- binding: binds
B1: WDHD1 (endogenous) (protein, UniProt O75717 1-1129)
chain: MPATRKPMRYGHTEGHTEVCFDDSGSFIVTCGSDGDVRIWEDLDDDDPKFINVGEKAYSCALKSGKLVTAVSNNTIQVHTFPEGVPDGILTRFTTNANHVVFNGDGTKIAAGSSDFLVKIVDVMDSSQQKTFRGHDAPVLSLSFDPKDIFLASASCDGSVRVWQISDQTCAISWPLLQKCNDVINAKSICRLAWQPKSGKLLAIPVEKSVKLYRRESWSHQFDLSDNFISQTLNIVTWSPCGQYLAAGSINGLIIVWNVETKDCMERVKHEKGYAICGLAWHPTCGRISYTDAEGNLGLLENVCDPSGKTSSSKVSSRVEKDYNDLFDGDDMSNAGDFLNDNAVEIPSFSKGIINDDEDDEDLMMASGRPRQRSHILEDDENSVDISMLKTGSSLLKEEEEDGQEGSIHNLPLVTSQRPFYDGPMPTPRQKPFQSGSTPLHLTHRFMVWNSIGIIRCYNDEQDNAIDVEFHDTSIHHATHLSNTLNYTIADLSHEAILLACESTDELASKLHCLHFSSWDSSKEWIIDLPQNEDIEAICLGQGWAAAATSALLLRLFTIGGVQKEVFSLAGPVVSMAGHGEQLFIVYHRGTGFDGDQCLGVQLLELGKKKKQILHGDPLPLTRKSYLAWIGFSAEGTPCYVDSEGIVRMLNRGLGNTWTPICNTREHCKGKSDHYWVVGIHENPQQLRCIPCKGSRFPPTLPRPAVAILSFKLPYCQIATEKGQMEEQFWRSVIFHNHLDYLAKNGYEYEESTKNQATKEQQELLMKMLALSCKLEREFRCVELADLMTQNAVNLAIKYASRSRKLILAQKLSELAVEKAAELTATQVEEEEEEEDFRKKLNAGYSNTATEWSQPRFRNQVEEDAEDSGEADDEEKPEIHKPGQNSFSKSTNSSDVSAKSGAVTFSSQGRVNPFKVSASSKEPAMSMNSARSTNILDNMGKSSKKSTALSRTTNNEKSPIIKPLIPKPKPKQASAASYFQKRNSQTNKTEEVKEENLKNVLSETPAICPPQNTENQRPKTGFQMWLEENRSNILSDNPDFSDEADIIKEGMIRFRVLSTEERKVWANKAKGETASEGTEAKKRKRVVDESDETENQEEKAKENLNLSKKQKPLDFSTNQKLSAFAFKQE
